Test results from US9359298B2, “Cajanine structure analogous compound, preparation method and use” (INSTITUTE OF MEDICINAL BIOTECHNOLOGY, CHINESE ACADEMY OF …, priority 2011, dated 2016).
At least one compound was matched to its structure with a doubt left. Some entries repeat one wording, which the source may state once for all of them.

System: Influenza A virus (hanfang359/95)
Assay: Determination of anti-influenza virus activity (CPE in MDCK cells)
Assay type: cell-based
Details: statement in words

How did the “anti-influenza virus activities compared with the lead compound cajanine” value turn out when `CC/C=C/c1cc(OC)c(CC=C(C)C)c(O)c1C(=O)O` [Compound 1h, 2-hydroxy-3-isopentenyl-4-methoxy-6-[(E)-buten-1-yl]benzoic acid] was run?
Its value is “significantly stronger than the lead compound cajanine”.

How did the “anti-influenza virus activities compared with the lead compound cajanine” value turn out when `CC/C=C/c1cc(OC)c(CC=C(C)C)c(O)c1C(=O)OC` [Compound 8h, methyl 2-hydroxy-3-isopentenyl-4-methoxy-6-[(E)-buten-1-yl]-benzoate] was run?
Its value is “significantly stronger than the lead compound cajanine”.

Which “anti-influenza virus activities compared with the lead compound cajanine” value does the source give for `COc1cc(/C=C/c2ccccc2)c(C(=O)NC2CCNCC2)c(O)c1CC=C(C)C` [Compound 9f] here?
Its value is “significantly stronger than the lead compound cajanine”.

With `CC/C=C/c1cc(O)c(CC=C(C)C)c(OC)c1` [Compound 10h, 2-isopentenyl-3-methoxy-5-[(E)-buten-1-yl]phenol] as the compound, how does the “anti-influenza virus activities compared with the lead compound cajanine” value read?
Its value is “significantly stronger than the lead compound cajanine”.

How did the “anti-influenza virus activities compared with the lead compound cajanine” value turn out when `COC(=O)c1c(/C=C/c2ccccc2)cc(OC)c(CC=C(C)C)c1OC(=O)C1CCCN1` (centres unmarked) [Compound 24d] was run?
The value was “significantly stronger than the lead compound cajanine”.
